The supplement of paper PMC10735217
Several values for one entry are separate records, joined by “and”; a condition that tells them apart may be missing. Identical values can stand only once. Counter-ions that a name gives are not always drawn. The list shows a part of the results. This data set is noisy: repeats of one test often differ as much as different tests do.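 Human kidney-derived cells stably carry a construct in which eight TEAD-binding elements drive luciferase, measured by luminescence in a drug-repurposing library screen. A hit is any compound whose signal exceeds the plate mean by more than five robust Z scores.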

Test system: HEK293A TEAD-LUC reporter
Assay: TEAD-luciferase reporter activity (YAP activation), robust Z score vs plate; higher = stronger YAP/TEAD activation
Conditions: 24 h

Row | Compound | TEAD-luciferase reporter activity (compound concentration: 200 nM) | TEAD-luciferase reporter activity (compound concentration: 2 uM) | TEAD-luciferase reporter activity (compound concentration: 10 uM)
1 | O=S(=O)(O)c1ccc(O)cc1 | inactive: -2.04 | inactive: 1.46 | inactive: -0.751
2 | O=C(c1ccccc1)c1cc2c(cc1O)C(C(=O)O)CC2 (stereo not given) | inactive: -0.706 | inactive: -0.726 | inactive: -1
3 | NC(=O)Cc1cnc2cc(OCc3cccc(F)c3)ccc2c1 | inactive: -0.263 | inactive: -0.612 | active: 5.36
4 | NCC[C@H](Oc1ccc(C(F)(F)F)cc1)c1ccccc1 | inactive: -2.69 | inactive: -1.88 | inactive: 0.787
5 | CO/N=C(\C(=O)N[C@@H]1C(=O)N2C(C(=O)O)=C(COC(N)=O)CS[C@H]12)c1ccco1 [cefuroxime] | – | inactive: 0.521 | –
6 | CO/N=C(\C(=O)N[C@@H]1C(=O)N2C(C(=O)O)=C(COC(N)=O)CS[C@H]12)c1ccco1 [Cefuroxime sodium salt] | inactive: -1 | – | inactive: -1.44
7 | COc1ccccc1[C@@H]1CCN(Cc2ccc(=O)n(C(C)C)c2)C1 | inactive: -0.319 | inactive: -0.629 | inactive: -1.49
8 | Cc1coc2c1c(C)cc1oc(=O)cc(C)c12 | inactive: -0.0695 | inactive: -0.861 | inactive: -0.29
9 | COC(=O)c1c(-c2cc(OC)c(OC)c(OC)c2)c2ccnc(OCc3ncccn3)c2c(=O)n1Cc1ccnc(C)c1 | inactive: -0.499 | inactive: -1.28 | inactive: 0.632
10 | COc1ccc(NC(=O)N2CCCCN3[C@H](CN(C)C)[C@H](c4ccc(C#Cc5ccccc5)cc4)[C@@H]3C2)cc1 | inactive: 0.881 | inactive: -0.837 | inactive: -0.43
11 | CC(C)(O)c1cn(-c2ccc(-c3cc(F)c(CO)c(S(C)(=O)=O)c3)cc2F)c(C(C)(C)c2c(Cl)cccc2Cl)n1 | inactive: 0.297 | inactive: 1.36 | inactive: -0.444
12 | COc1ccc(N2CCOCC2)c2sc(NC(=O)N3CCC(C)(O)CC3)nc12 [tozadenant] | inactive: -0.0693 | inactive: -1.57 | inactive: -0.81
13 | NC1(C(=O)O)CCc2cc(C(=O)O)ccc21 (stereo not given) | inactive: 0.797 | inactive: -1.39 | inactive: -0.951
14 | NCC[C@H](O)C(=O)N[C@@H]1C[C@H](N)[C@@H](O[C@H]2O[C@H](CN)[C@@H](O)[C@H](O)[C@H]2O)[C@H](O)[C@H]1O[C@H]1O[C@H](CO)[C@@H](O)[C@H](N)[C@H]1O [Amikacin] | inactive: -1 | inactive: 1.01 | inactive: -1.04
15 | NS(=O)(=O)c1cc(C(=O)NN2C[C@@H]3[C@H]4CC[C@H](C4)[C@@H]3C2)ccc1Cl | inactive: 0.459 | inactive: 0.606 | inactive: 1.61
16 | Cc1ccc(OCC(O)CNC(C)(C)C)c2oc(=O)ccc12 (stereo not given) [bucumolol] | inactive: 0.282 | inactive: -0.592 | inactive: 1.52
17 | N#CC(c1ccc(Cl)cc1)c1c(Cl)cc(-n2ncc(=O)[nH]c2=O)cc1Cl (stereo not given) | inactive: -1.53 | – | inactive: 2.11
18 | N#CC(c1ccc(Cl)cc1)c1c(Cl)cc(-n2ncc(=O)[nH]c2=O)cc1Cl (stereo not given) [Diclazuril] | – | inactive: -0.407 | –
19 | Cc1cc(SCc2sc(-c3ccc(C(F)(F)F)cc3)nc2C)ccc1OCC(=O)O | inactive: -2.62 | inactive: -0.911 | inactive: -1.1
20 | C=CC(=O)N1C[C@H](COc2nc(Nc3cnn(C)c3)nc3[nH]cc(Cl)c23)[C@@H](OC)C1 | inactive: -0.656 | inactive: -1.12 | inactive: -0.238
21 | CCCC[C@H](NC(=O)[C@@H]1[C@@H]2[C@H](CN1C(=O)[C@@H](NC(=O)NC1(CS(=O)(=O)C(C)(C)C)CCCCC1)C(C)(C)C)C2(C)C)C(=O)C(=O)NC1CC1 [narlaprevir] | inactive: -0.617 | inactive: -0.0402 | inactive: -1.89
22 | O=C(c1ccccc1F)N1CCC(N2CCCNC2=O)CC1 | inactive: 1.54 | – | inactive: 0.634
23 | CN(C)[C@@H]1C(=O)C(C(N)=O)C(=O)[C@@]2(O)C(=O)C3C(=O)c4c(O)cccc4C[C@H]3C[C@@H]12 (stereo not given in full) | inactive: -1.79 | inactive: -0.822 | inactive: 1.33
24 | C[C@H](N)C(=O)N[C@@H](C)P(=O)(O)O [alafosfalin] | inactive: 2.24 | inactive: -1.07 | inactive: -0.849
25 | Cc1nn2ccccc2c1C(=O)C1=CNCCC1 | inactive: 0.163 | inactive: -1.16 | inactive: -0.695
26 | N[C@@H](CSCCCO)C(=O)O [fudosteine] | inactive: -0.956 | inactive: -0.865 | inactive: -0.245
27 | COc1c2occc2c(OC)c2c(=O)cc(C)oc12 [Khellin] | – | inactive: 1 | –
28 | COc1c2occc2c(OC)c2c(=O)cc(C)oc12 | inactive: -1.69 | – | inactive: -1.01

Row | Compound | TEAD-luciferase reporter activity (compound concentration: 200 nM) | TEAD-luciferase reporter activity (compound concentration: 2 uM) | TEAD-luciferase reporter activity (compound concentration: 10 uM)
29 | O=C1OC(=O)C2C3CCC(O3)C12 (stereo not given) [Norcantharidin] | inactive: 0.699 | inactive: 1.58 | inactive: -0.236
30 | N=C(N)NCCCCC(=O)Nc1cc(C(F)(F)F)cc(NC(=O)c2cc(C(=O)Nc3cc(C(F)(F)F)cc(NC(=O)CCCCNC(=N)N)c3O[C@@H]3CCNC3)ncn2)c1O[C@@H]1CCNC1 | inactive: 0.377 | inactive: 1.63 and inactive: -0.857 | inactive: -0.0516
31 | O=C1CCc2ccc(OCCCCN3CCN(c4cccc(Cl)c4Cl)CC3)cc2N1 [Aripiprazole (Abilify)] | – | inactive: -0.427 | –
32 | O=C1CCc2ccc(OCCCCN3CCN(c4cccc(Cl)c4Cl)CC3)cc2N1 | inactive: -1.11 | – | inactive: 0.198
33 | N#Cc1ccc2c(c1)N(CCCN1CCC(O)CC1)c1ccccc1S2 [Periciazine] | inactive: -0.986 | inactive: -0.588 | inactive: -0.202
34 | O[C@H]1CC[C@H](Nc2ncc3nc(Nc4c(F)cc(F)cc4F)n([C@H]4CCOC4)c3n2)CC1 [Tanzisertib] | inactive: -1.62 | inactive: -0.997 | inactive: 0.168
35 | OC[C@H]1O[C@H](O[C@H]2[C@H](O)[C@@H](O)[C@H](O)O[C@@H]2CO)[C@H](O)[C@@H](O)[C@@H]1O [Maltose] | inactive: -0.357 | inactive: 0.144 | inactive: -0.774
36 | O.O.O.O.O.O.[Al+3].[Cl-].[Cl-].[Cl-] [aluminium chloride hexahydrate] | inactive: 0.58 | inactive: -1.26 | inactive: -0.773
37 | C[N+](C)(C)CC[N+]1(C)Cc2c(Cl)c(Cl)c(Cl)c(Cl)c2C1 [Chlorisondamine diiodide] | inactive: 2.08 | inactive: 1.14 | inactive: -1.46
38 | Cn1c(-c2cccc(F)c2)nc2c(N)nc(C#CC3(O)CCCC3)nc21 | inactive: 1.31 | inactive: -0.477 | inactive: -0.993
39 | NCCCC(=O)OCCN1CCN(CCCN2c3ccccc3Sc3ccc(Cl)cc32)CC1 | inactive: -0.644 | inactive: -2.34 | active: 5.28
40 | C[C@H]1c2ccccc2CCN1C(=O)c1cc2ncc(Br)cn2n1 | inactive: -2.42 | inactive: -1.32 | inactive: 0.724
41 | Cc1ccc(-c2cccc(CN3CCCC(NC(=O)c4ccc(Cl)cc4)C3)c2)cc1Cl (stereo not given) | inactive: -2.19 | – | inactive: 3.39
42 | CC(=O)OCC(=O)[C@@]1(O)[C@H](C)C[C@H]2[C@@H]3C[C@H](F)C4=CC(=O)C=C[C@]4(C)[C@@]3(F)[C@@H](O)C[C@@]21C [Flumethasone Acetate] | inactive: 0.393 | inactive: 1.75 | inactive: 4.11
43 | NC(=O)C1c2ccccc2C=Cc2ccccc21 | inactive: -0.327 | inactive: -0.93 | inactive: -0.831
44 | CN1Cc2ccccc2C(=O)c2cc(CC(=O)O)ccc21 | inactive: -0.807 | inactive: -0.479 | inactive: -1.55
45 | COc1cc(C(=O)OCCCN(C)CCN(C)CCCOC(=O)c2cc(OC)c(OC)c(OC)c2)cc(OC)c1OC | inactive: -0.527 | inactive: 1.54 | inactive: 0.599
46 | CN1CCN(C2=Nc3ccccc3Oc3ccc(Cl)cc32)CC1 [Loxapine succinate] | – | inactive: 2.11 | –
47 | CN1CCN(C2=Nc3ccccc3Oc3ccc(Cl)cc32)CC1 [Loxapine] | inactive: -1.02 | – | inactive: 2.89
48 | CC1(C)Oc2ccc(NC(=O)/C=C/c3ccc([N+](=O)[O-])cc3)cc2NC1=O | inactive: 0.327 | inactive: -0.282 | inactive: -1.1
49 | COc1ccc2ncc(C(=O)NC3=NCCS3)c(O)c2c1 | inactive: -1.09 | inactive: 2.42 | active: 6.48
50 | CN(C)C(=O)Cn1c(-c2csc(N(CC3CCOCC3)c3ccccc3)n2)c(C2CCCCC2)c2ccc(C(=O)O)cc21 | inactive: 0.755 | inactive: -0.432 | inactive: 0.2
51 | CC(C)(C)NCC(O)c1ccc(O)c(CO)n1 (stereo not given) [Pirbuterol hydrochloride] | inactive: 0.687 | inactive: -1.24 | inactive: 0.0114
52 | COc1ccc(C(C#N)(CCCN2CCc3cc(OC)c(OC)cc3C2)C(C)C)cc1OC (stereo not given) | inactive: -0.924 | inactive: -1.43 | inactive: 0.859
53 | COc1ccc(S(=O)(=O)N(C(C)=O)c2ccccc2/C=C/c2cc[n+]([O-])cc2)cc1 | inactive: -1.42 | inactive: -2.45 | inactive: -0.362
54 | CCN(C(=O)c1c(O)c2c(Cl)cccc2n(C)c1=O)c1ccccc1 [laquinimod] | – | inactive: -1.31 | –
55 | CCN(C(=O)c1c(O)c2c(Cl)cccc2n(C)c1=O)c1ccccc1 [Laquinimod] | inactive: 2.28 | – | inactive: 1.35
